A short description of data set [1]: Motor or other evident toxic effects after i.p. administration. The note with it: i.p. lidocaine 60 mg/kg; 3-OHL 15 mg/kg.
For data set [2], the system named is neurons in Rexed lamina V. The conditions noted are these: decerebrate cats; high threshold mechanical and noxious thermal stimuli; cited from earlier work.

Turning to `CCN(CC)CC(=O)Nc1c(C)cccc1C` [lidocaine], the “motor or other evident toxic effects” value in data set [1] is “No motor or other evident toxic effects”. The “plasma concentration with dose-related suppression of Rexed lamina V neurons” value in data set [2] is 3 to 10 µg/mL.
